Measured values as given in PubChem BioAssay AID1487 (National Center for Advancing Translational Sciences (NCATS), 2009).
The list shows a part of the results. Further columns of the screen follow, without active or inactive calls. Most of these compounds were active or inconclusive in the main read-out, so they are no random draw. Words in brackets tell the shape of the fitted curve; partial curves, single points and poor fits give uncertain potencies.

Assay: qHTS Assay for Modulators of Lamin A Splicing
Conditions: HeLa LMNA splicing GFP/RFP minigene ratio, 48 h
Summary of the method: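 S3 HeLa cells stably expressing lamin A-EGFP splicing minigene plus DsRed2, 600 cells/well, 48 h compound exposure at 37C. Laser-scanning cytometry; analysed as GFP (500-530 nm)/RFP (575-640 nm) total intensity ratio; 0.5% DMSO vehicle.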

[1] = measured here: RFP viability control channel
[2] = measured here: GFP splicing reporter channel

Structure (SMILES)	AC50 [1]	AC50 [2]
COc1ccc(C(=O)N/N=C(\CCC(=O)O)c2ccc(C(C)(C)C)cc2)cc1OC	35.5 µM [rising, partial curve, poor fit]	–
c1ccc(CC2CCN(c3nnnn3-c3ccccc3)CC2)cc1	10 µM [rising, partial curve]	–
O=C1c2ccccc2NC(c2ccc(-c3ccc(Br)cc3)o2)N1O (stereo unspecified)	–	35.5 µM [rising, single point]
O=C(CSc1ccc(-c2ccncc2)nn1)c1ccc(Cl)cc1	6.31 µM [falling, partial curve]	7.94 µM [falling, partial curve]
O=c1[nH]c(CSc2ncc(-c3ccc(F)cc3)n2Cc2ccco2)nc2ccccc12	17.8 µM [rising, single point]	10 µM [rising, partial curve]
COCc1cc(C)n(CC(=O)OC)c(=O)c1C#N	–	1.26 µM [falling, partial curve, poor fit]
CCOC(=O)c1cnc2c(-c3ccc(Cl)cc3)cnn2c1C	0.00631 µM [falling, full curve, poor fit]	–
Cc1cc(Oc2ccc(C#N)cc2)nc(N2CCOCC2)n1	15.8 µM [rising, partial curve, poor fit]	–
COc1ccc(OCCSc2nnc(Cc3cccc4ccccc34)n2N)cc1	31.6 µM [rising, single point]	31.6 µM [rising, single point]
COc1ccc(N=Nc2nc(-c3ccccc3)c(-c3ccccc3)[nH]2)cc1	20 µM [rising, partial curve]	20 µM [rising, single point]
CCOc1ccc(-c2nnc(-c3ccco3)o2)cc1OCC	11.2 µM [rising, single point]	–
O=C(O)C1=CC(=C(c2ccc(O)c(C(=O)O)c2)c2ccc(O)c(C(=O)O)c2)C=CC1=O	22.4 µM [rising, single point]	14.1 µM [rising, single point]
COc1ccc(C(=O)Nc2nnc(S(=O)(=O)N3CCC(C)CC3)s2)cc1OC	35.5 µM [falling, partial curve, poor fit]	35.5 µM [falling, single point]
CCc1ccc(NC(=O)c2ccc(F)c(S(=O)(=O)N(CC)c3ccccc3)c2)cc1	5.62 µM [rising, single point]	–
C/C(=N\NC(=O)C(N)=O)c1cccc(C(F)(F)F)c1	–	0.0891 µM [falling, full curve, poor fit]
O=C1CC(c2ccco2)CC2=C1C1c3ccccc3C(=O)N1c1ccccc1N2 (stereo unspecified)	35.5 µM [rising, single point]	11.2 µM [falling, partial curve]
CC(C)c1ccc(-c2nnn(Cc3nc4ccccc4s3)n2)cc1	31.6 µM [rising, single point]	–
CN([C@@H](Cc1ccc(OS(=O)(=O)c2cccc3cnccc23)cc1)C(=O)N1CCN(c2ccccc2)CC1)S(=O)(=O)c1cccc2cnccc12	12.6 µM [rising, partial curve]	8.91 µM [rising, partial curve]
O=c1c2sccc2nc(SCc2cc(=O)n3cc(Cl)ccc3n2)n1Cc1ccccn1	–	0.158 µM [falling, full curve, poor fit]
O=c1[nH]c2ccccc2nc1/C=C(\O)C(F)F	0.794 µM [falling, full curve, poor fit]	0.708 µM [falling, full curve]
Cc1ccc(C)n1-c1ccc(-c2nnco2)cc1	35.5 µM [falling, single point]	–
CCCn1c(C)cc(=O)c2cc(NC(=O)c3ccccn3)ccc21	0.02 µM [rising, full curve, poor fit]	–
C/C(Cl)=C\Cn1c(Nc2ccccc2)nc2c1c(=O)n(C)c(=O)n2C	20 µM [rising, single point]	–
O=C1c2ccccc2C(Nc2ccc3c(c2)OCO3)N1Cc1ccco1 (stereo unspecified)	35.5 µM [rising, single point]	–
CCc1nnc(NC(=O)CSc2nccn2-c2cccc(C)c2C)s1	2.51 µM [rising, single point]	–
COc1ccc(-c2cc(N)n(S(=O)(=O)c3ccc(F)cc3)n2)cc1OC	20 µM [rising, single point]	–
Cc1ccc(OCC(O)C(C)NC(C)C)c2c1CCC2 (stereo unspecified)	0.00562 µM [falling, full curve, poor fit]	–

Full records, looked up by structure. Order of values: AC50 [1] | AC50 [2]
`CC(C)c1ccc(-c2nnn(Cc3nc4ccccc4s3)n2)cc1` as listed: 31.6 µM [rising, single point] | –
`CCc1ccc(NC(=O)c2ccc(F)c(S(=O)(=O)N(CC)c3ccccc3)c2)cc1` as listed: 5.62 µM [rising, single point] | –
